Results deposited as PubChem BioAssay AID504786 (Drosophila RNAi Screening Center, 2011)

Assay: 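Positive regulators of HIF-driven reporter output in Drosophila cells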 (primary screen)
System: Drosophila S2 cells with a stable HIF luciferase reporter
Reagents: long dsRNA against Drosophila genes, about 0.2 µg dsRNA per well of a 384-well plate
Time to read-out: three days of knock-down, then 20 h of DFO before reading
Conditions: desferrioxamine (DFO) at 100 µM, an iron chelator that mimics hypoxia, for 20 h
Read-out: 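Firefly luciferase driven by the mouse ldh-a hypoxia-response element, measured after 20 h of 100 µM DFO; z-scores per plate, higher means more signal lost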
Scale: z-score: higher = stronger loss of HIF reporter signal
The screen tested about 21,000 reagents; shown is a random part of those that have a named target and a result. 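Primary screen; positive scores mean lost reporter signal, so the sign may be inverted from the usual convention.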 Names joined by + are all predicted targets of the reagent. No sequences are given here.

Target gene	DRSC id	z-score, replicate 1	z-score, replicate 2	z-score, replicate 3	z-score, replicate 4
Dys + snoRNA:Me18S-A1374	DRSC16232	0.1	-0.6		
Hex-A	DRSC18259	0.1	0.1		
CG31436	DRSC14661	-0.2	0		
jus	DRSC14861	-0.7	-1.4		
jus	DRSC14862	-0.2	-0.2		
Mcm3	DRSC18679	-0.1	0.1		
CCT5	DRSC07357	0.8	3.5		
Taf11	DRSC03448	0.5	0.3		
CG14480	DRSC06452	-0.3	-0.3		
mthl11	DRSC12779	0	-0.2		
PLCXD	DRSC02427	-0.3	-0.5	0.1	-0.2
CG43316	DRSC06296	0	-0.2		
CG43316	DRSC06297	-0.2	-0.3		
CG12698	DRSC19485	-0.3	-0.1		
CG40006	DRSC03787	0.5	0.6		
CG40006	DRSC03809	0.1	-0.2		
CG40006	DRSC03814	0.1	0.2		
CG40006	DRSC03817	0	-0.1		
CG9084	DRSC07335	0	-0.1		
CG6296	DRSC16013	-0.3	-0.2		
CG13117	DRSC02215	-0.3	-0.4		
Gr93a	DRSC14593	0.8	0.1		
VhaM9.7-a	DRSC08289	-0.4	0		
UBL3	DRSC20298	0.1	-0.9		
Dic4	DRSC10317	-0.1	0.2		
CG17493	DRSC03798	-0.2	0.6		
flr	DRSC09787	-0.1	0.4		
OtopLa	DRSC17787	-0.3	-0.6	0.7	-0.2
OtopLa	DRSC18133	-0.2	-0.3		
Prosbeta2R1	DRSC18154	-0.3	-0.1		
CG13616	DRSC14619	-0.1	-0.1		
DCTN6-p27	DRSC02609	-0.3	-0.4	0.1	-0.1
Mur18B	DRSC20063	-0.2	-0.3		
Trm7-34	DRSC16171	0.2	-0.9		
santa-maria	DRSC00994	0.2	-0.3		
santa-maria	DRSC02180	-0.3	-0.6		
bur	DRSC03163	-0.4	-0.7		
CG34112	DRSC12235	-0.3	-0.8		
Rim2	DRSC00073	-0.3	-0.1		
Rim2	DRSC00520	0	0.1		
CG5157	DRSC10488	-0.3	-0.3		
Snx27	DRSC17786	-0.3	-0.3		
Snx27	DRSC18282	-0.2	-0.1		
Snx27	DRSC18284	-0.3	-0.3		
CG18596	DRSC15355	-0.3	-0.3		
CG34229	DRSC06316	-0.4	-0.4		
wb	DRSC01375	2.9	-2		
wb	DRSC03634	-0.3	-0.4		
mtg	DRSC16256	-0.3	-0.2		
CG30432	DRSC04833	-0.1	0		
Arl4	DRSC17156	-0.3	-0.3		
CG34328	DRSC19256	-0.1	-0.1		
Tango1	DRSC02127	-0.4	-0.5		
CG34034	DRSC13506	-0.3	-0.2		
Synj	DRSC04526	-0.3	-0.3		
CG32017	DRSC17183	-0.3	-0.5		

18 entries already listed, ordered by “z-score, replicate 1”, highest first.
Target gene	DRSC id	z-score, replicate 1	z-score, replicate 2	z-score, replicate 3	z-score, replicate 4
Gr93a	DRSC14593	0.8	0.1		
CG40006	DRSC03809	0.1	-0.2		
CG40006	DRSC03814	0.1	0.2		
UBL3	DRSC20298	0.1	-0.9		
CG40006	DRSC03817	0	-0.1		
CG9084	DRSC07335	0	-0.1		
Dic4	DRSC10317	-0.1	0.2		
flr	DRSC09787	-0.1	0.4		
CG13616	DRSC14619	-0.1	-0.1		
CG17493	DRSC03798	-0.2	0.6		
OtopLa	DRSC18133	-0.2	-0.3		
Mur18B	DRSC20063	-0.2	-0.3		
CG6296	DRSC16013	-0.3	-0.2		
CG13117	DRSC02215	-0.3	-0.4		
OtopLa	DRSC17787	-0.3	-0.6	0.7	-0.2
Prosbeta2R1	DRSC18154	-0.3	-0.1		
DCTN6-p27	DRSC02609	-0.3	-0.4	0.1	-0.1
VhaM9.7-a	DRSC08289	-0.4	0		

Further reagents follow:
Target gene	DRSC id	z-score, replicate 1	z-score, replicate 2	z-score, replicate 3	z-score, replicate 4
Ccdc114	DRSC15025	-0.3	-0.5		
CG8950	DRSC07300	-0.2	-0.3		
P5CS	DRSC11831	-0.3	-0.7		
P5CS	DRSC11832	-0.3	-0.5		
mus81	DRSC18180	-0.3	-0.8		
mus81	DRSC18644	-0.3	-0.1		
Rrp1	DRSC00784	-0.2	-0.2		
Vlet	DRSC19845	-0.1	-0.7		
Pgant3	DRSC05942	-0.1	-0.1		
CG34325	DRSC19802	-0.2	0		
CG34325	DRSC20200	-0.2	-0.6		
CG14257	DRSC14752	-0.3	-0.5		
Ste:CG33238 + Ste:CG33241 + Ste:CG33236 + 11 more	DRSC19004	-0.4	0.2		
Ste:CG33238 + Ste:CG33241 + Ste:CG33236 + 11 more	DRSC21260	-0.4	-0.4		
Glg1	DRSC11815	-0.2	-0.6		
Glg1	DRSC11816	-0.2	0.9		
Glg1	DRSC11817	-0.4	-0.4		
Alp8	DRSC04353	-0.2	-0.6		
Pdk	DRSC07504	-0.3	-0.8		
GstD8	DRSC16689	0	0.1		
CG13428	DRSC06390	-0.1	1		
chn	DRSC06086	0.2	0.2		
CG10492	DRSC02064	0.6	0.7		
ND-MWFE	DRSC06364	-0.1	-0.1		
CG8079	DRSC07070	-0.3	-0.3		
CG8079	DRSC07071	0.1	0.3		
mrt	DRSC15484	0	-0.5		
CG9631	DRSC14137	-0.1	0		
LManIII	DRSC03221	-0.1	0.2		
CG32982	DRSC01059	1.1	2.9		
CG32982	DRSC02677	-0.3	-0.3		
CG32982	DRSC03268	-0.4	0	-0.2	-0.3
CG32982	DRSC03269	-0.1	0		
Etfb	DRSC16324	-0.3	-0.4		
Dif	DRSC03316	-0.2	-0.3		
MKP-4	DRSC19567	-0.1	0.2		
CG12104	DRSC08254	-0.3	-0.4		
snoRNA:U31:54Ec + snoRNA:snR38:54Eb + snoRNA:U27:54Eb + 8 more	DRSC06458	-0.1	-0.3		
l(2)gl	DRSC00825	-0.2	0.6		
Mur89F	DRSC15544	-0.3	-0.7		
CG17404	DRSC15234	-0.4	-0.3		
CG42821 + CG42822	DRSC13231	-0.3	-0.3		
CG42821 + CG42822	DRSC13232	-0.4	-0.2		
CG8519	DRSC10985	-0.3	-0.2		
CG15126	DRSC06548	-0.2	-0.6		
bves	DRSC20520	-0.4	-0.7		
bves	DRSC20554	-0.4	-0.3		
bves	DRSC20555	-0.5	-0.3		
CG13599	DRSC14602	-0.2	-0.7		
CG8172	DRSC07089	-0.2	0		
